Article PMC5650399
Results are given in words; binding and its absence hold for the method and conditions named. Binding seen in cells or lysates may run through a third protein. Some results given as binding are weak or reduced against the parent protein; the word gives no strength.

Amino acid sequences for entries named in this document (tags omitted).
UniProt O43524: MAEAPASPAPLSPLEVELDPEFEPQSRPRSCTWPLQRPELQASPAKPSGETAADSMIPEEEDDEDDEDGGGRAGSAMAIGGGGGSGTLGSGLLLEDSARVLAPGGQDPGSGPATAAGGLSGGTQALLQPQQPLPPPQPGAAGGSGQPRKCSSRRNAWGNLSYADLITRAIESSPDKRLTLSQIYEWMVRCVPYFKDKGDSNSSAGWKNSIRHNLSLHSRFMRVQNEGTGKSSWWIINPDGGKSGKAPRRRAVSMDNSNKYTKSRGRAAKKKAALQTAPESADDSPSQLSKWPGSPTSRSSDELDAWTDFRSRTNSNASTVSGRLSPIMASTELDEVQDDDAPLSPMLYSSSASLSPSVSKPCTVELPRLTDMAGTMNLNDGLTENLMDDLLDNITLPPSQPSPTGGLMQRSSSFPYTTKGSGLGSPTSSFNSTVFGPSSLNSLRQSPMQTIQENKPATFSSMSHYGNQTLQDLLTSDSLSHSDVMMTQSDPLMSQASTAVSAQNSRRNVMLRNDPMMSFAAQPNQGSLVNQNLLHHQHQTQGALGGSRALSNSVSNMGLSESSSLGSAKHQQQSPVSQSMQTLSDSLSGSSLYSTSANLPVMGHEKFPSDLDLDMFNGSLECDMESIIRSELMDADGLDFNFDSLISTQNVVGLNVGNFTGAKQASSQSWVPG
UniProt Q13555: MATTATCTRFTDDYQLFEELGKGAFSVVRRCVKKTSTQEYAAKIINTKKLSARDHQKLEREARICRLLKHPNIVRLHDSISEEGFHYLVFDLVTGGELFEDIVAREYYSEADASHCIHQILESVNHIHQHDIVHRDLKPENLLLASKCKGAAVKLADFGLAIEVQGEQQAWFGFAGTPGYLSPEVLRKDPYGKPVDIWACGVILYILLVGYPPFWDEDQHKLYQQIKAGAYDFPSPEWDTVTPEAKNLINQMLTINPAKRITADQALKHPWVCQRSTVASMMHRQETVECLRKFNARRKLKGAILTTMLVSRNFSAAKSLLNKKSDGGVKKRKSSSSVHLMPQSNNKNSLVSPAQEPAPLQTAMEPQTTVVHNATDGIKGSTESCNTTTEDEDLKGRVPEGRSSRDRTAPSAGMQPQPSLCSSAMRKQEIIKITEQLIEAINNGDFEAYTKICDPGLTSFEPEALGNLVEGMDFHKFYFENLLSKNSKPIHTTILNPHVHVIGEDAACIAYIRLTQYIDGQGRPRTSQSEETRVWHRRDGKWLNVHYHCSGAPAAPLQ

Target: full-length FOXO3a-FLAG in Jurkat cells (human) (UniProt O43524)
Test: co-IP; Jurkat cell lysates (0.5% NP-40, 10 mM NaCl, 10 mM Tris-HCl pH 8.0, 0.3 M sucrose, 3 mM MgCl2) immunoprecipitated with FLAG antibody and protein A magnetic beads overnight at 4 °C, washed with PBST; Western blot of the precipitates

CaMKIIγ (endogenous, Jurkat) (from UniProt Q13555 1-558) (enzyme)
binding: binds
